Source: the supplement of paper PMC4604168 (melanoma cell lines)
This is one part of the list. Repeats are few or missing, and single values can be far off.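 Cells were imaged in 1,536-well plates, and nuclei stained with an antibody against cleaved PARP were counted against all DNA-stained nuclei to give the apoptosis fraction. Screening doses were chosen to leave most cells alive, and resting and induced cleaved-PARP levels differ strongly between cell lines.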

system: SkMel28; experiment: cleaved PARP positive nuclei fraction relative to DMSO control; melanoma cells; higher = more apoptosis; conditions: library dose: low library concentration; 72 h

Row | SMILES | cleaved PARP positive nuclei fraction [%]
1 | CCCCCCCCc1ccc(CCC(N)(CO)CO)cc1 [fingolimod] + NCC(=O)Nc1ccc(-n2nc(C(F)(F)F)cc2-c2ccc3c(ccc4ccccc43)c2)cc1 [OSU03012] (first compound 2 µM, partner dose 1 µM) | 159
2 | CC1(C)CCC(c2ccc(Cl)cc2)=C(CN2CCN(c3ccc(C(=O)NS(=O)(=O)c4ccc(N[C@H](CCN5CCOCC5)CSc5ccccc5)c(S(=O)(=O)C(F)(F)F)c4)cc3)CC2)C1 + CO[C@@H]1[C@H](N(C)C(=O)c2ccccc2)C[C@H]2O[C@]1(C)n1c3ccccc3c3c4c(c5c6ccccc6n2c5c31)C(=O)NC4 [Midostaurin] (first compound 0.4 µM, partner dose 0.08 µM) | 242
3 | C[C@]1(O)C[C@@H](c2nc(-c3ccc4ccc(-c5ccccc5)nc4c3)c3c(N)nccn32)C1 + Cc1cc([N+](=O)[O-])ccc1NS(=O)(=O)c1cc(Cl)ccc1Cl [FH535] (first compound 0.4 µM, partner dose 1 µM) | 97.3

system: SkMel2; experiment: as above; conditions: library dose: low library concentration; 72 h

Row | SMILES | cleaved PARP positive nuclei fraction [%]
4 | C[C@@H](N)c1ccc(C(=O)Nc2ccnc3[nH]ccc23)cc1 + Cc1cc([N+](=O)[O-])ccc1NS(=O)(=O)c1cc(Cl)ccc1Cl [FH535] (first compound 0.4 µM, partner dose 1 µM) | 21.5
5 | CS(=O)(=O)c1ccc(C(=O)Nc2ccc(Cl)c(-c3ccccn3)c2)c(Cl)c1 [vismodegib] + O=S(=O)(c1ccccc1)N(CC(F)(F)F)c1ccc(C(O)(C(F)(F)F)C(F)(F)F)cc1 [T0901317] (first compound 1 µM, partner dose 1.4 µM) | 70.7
6 | CCN(CC)CCNC(=O)c1c(C)[nH]c(/C=C2\C(=O)Nc3ccc(F)cc32)c1C [sunitinib] + COc1cc(N2CCC(N3CCN(C)CC3)CC2)ccc1Nc1ncc(Cl)c(Nc2ccccc2S(=O)(=O)C(C)C)n1 [NVP-TAE684] (first compound 0.4 µM, partner dose 0.08 µM) | 61.8
7 | CC1(C)CCC(c2ccc(Cl)cc2)=C(CN2CCN(c3ccc(C(=O)NS(=O)(=O)c4ccc(N[C@H](CCN5CCOCC5)CSc5ccccc5)c(S(=O)(=O)C(F)(F)F)c4)cc3)CC2)C1 + CC(C)CCN1c2nc(Nc3cc(F)c(O)c(F)c3)ncc2N(C)C(=O)C1C [BID1870] (first compound 0.4 µM, partner dose 0.2 µM) | 114
8 | C[C@@H](N)c1ccc(C(=O)Nc2ccnc3[nH]ccc23)cc1 + CN(NC(=O)CC(=O)NN(C)C(=S)c1ccccc1)C(=S)c1ccccc1 [STA4783] (first compound 0.4 µM, partner dose 0.006 µM) | 71.2
9 | NC1(c2ccc(-c3nc4ccn5c(=O)[nH]nc5c4cc3-c3ccccc3)cc2)CCC1 + COc1cc(N2CCC(N3CCN(C)CC3)CC2)ccc1Nc1ncc(Cl)c(Nc2ccccc2S(=O)(=O)C(C)C)n1 [NVP-TAE684] (first compound 0.4 µM, partner dose 0.08 µM) | 64.8
10 | NC(=O)c1ccc(N(C(N)=O)c2c(F)cccc2F)nc1-c1ccc(F)cc1F + CCCCCCCCCCCC1=C(O)C(=O)C=C(O)C1=O [Embelin] (first compound 0.4 µM, partner dose 1.2 µM) | 83
11 | CS(=O)(=O)c1ccc(C(=O)Nc2ccc(Cl)c(-c3ccccn3)c2)c(Cl)c1 [vismodegib] + NCC(=O)Nc1ccc(-n2nc(C(F)(F)F)cc2-c2ccc3c(ccc4ccccc43)c2)cc1 [OSU03012] (first compound 1 µM, partner dose 1 µM) | 181
12 | NC1(c2ccc(-c3nc4ccn5c(=O)[nH]nc5c4cc3-c3ccccc3)cc2)CCC1 + O=S(=O)(c1ccccc1)N(CC(F)(F)F)c1ccc(C(O)(C(F)(F)F)C(F)(F)F)cc1 [T0901317] (first compound 0.4 µM, partner dose 1.4 µM) | 127
13 | NC(=O)c1ccc(N(C(N)=O)c2c(F)cccc2F)nc1-c1ccc(F)cc1F + CC(C)(C)c1cnc(CSc2cnc(NC(=O)C3CCNCC3)s2)o1 [SNS-032] (first compound 0.4 µM, partner dose 0.01 µM) | 139
14 | NC(=O)c1ccc(N(C(N)=O)c2c(F)cccc2F)nc1-c1ccc(F)cc1F + CO[C@@H]1[C@H](N(C)C(=O)c2ccccc2)C[C@H]2O[C@]1(C)n1c3ccccc3c3c4c(c5c6ccccc6n2c5c31)C(=O)NC4 [Midostaurin] (first compound 0.4 µM, partner dose 0.08 µM) | 137
15 | Cn1cnc2c(F)c(Nc3ccc(Br)cc3Cl)c(C(=O)NOCCO)cc21 [selumetinib] + COc1cc2c(Oc3ccc4[nH]c(C)cc4c3F)ncnc2cc1OCCCN1CCCC1 [cediranib] (first compound 0.015 µM, partner dose 0.4 µM) | 136
16 | C[C@]1(O)C[C@@H](c2nc(-c3ccc4ccc(-c5ccccc5)nc4c3)c3c(N)nccn32)C1 + c1cc(-c2cnn3cc(-c4ccc(OCCN5CCCCC5)cc4)cnc23)ccn1 [Dorsomorphin] (first compound 0.4 µM, partner dose 0.4 µM) | 66.8
17 | CC1(C)CCC(c2ccc(Cl)cc2)=C(CN2CCN(c3ccc(C(=O)NS(=O)(=O)c4ccc(N[C@H](CCN5CCOCC5)CSc5ccccc5)c(S(=O)(=O)C(F)(F)F)c4)cc3)CC2)C1 + NCC(=O)Nc1ccc(-n2nc(C(F)(F)F)cc2-c2ccc3c(ccc4ccccc43)c2)cc1 [OSU03012] (first compound 0.4 µM, partner dose 1 µM) | 548
18 | CN(c1ncccc1CNc1nc(Nc2ccc3c(c2)CC(=O)N3)ncc1C(F)(F)F)S(C)(=O)=O + O=C(O)c1ccc(-c2c[nH]c3ncc(-c4ccccc4)cc23)cc1C1CCCC1 [GSK650394] (first compound 0.08 µM, partner dose 0.16 µM) | 188
19 | NC(=O)c1ccc(N(C(N)=O)c2c(F)cccc2F)nc1-c1ccc(F)cc1F + COc1ccc(-c2ccc3c(N4CCOCC4)nc(N4C[C@@H](C)O[C@@H](C)C4)nc3n2)cc1CO [KU0063794] (first compound 0.4 µM, partner dose 0.02 µM) | 49.2
20 | NC1(c2ccc(-c3nc4ccn5c(=O)[nH]nc5c4cc3-c3ccccc3)cc2)CCC1 + CCCCCCCCCCCC1=C(O)C(=O)C=C(O)C1=O [Embelin] (first compound 0.4 µM, partner dose 1.2 µM) | 46.7
21 | NC(=O)c1ccc(N(C(N)=O)c2c(F)cccc2F)nc1-c1ccc(F)cc1F + CC1(C)NC(=O)N(c2ccc([N+](=O)[O-])c(C(F)(F)F)c2)C1=O [nilutamide] (first compound 0.4 µM, partner dose 1 µM) | 72
22 | COc1ccc(C2=N[C@@H](c3ccc(Cl)cc3)[C@@H](c3ccc(Cl)cc3)N2C(=O)N2CCNC(=O)C2)c(OC(C)C)c1 [Nutlin-3] + Cn1cncc1[C@@](N)(c1ccc(Cl)cc1)c1ccc2c(c1)c(-c1cccc(Cl)c1)cc(=O)n2C [tipifarnib] (first compound 0.1 µM, partner dose 0.01 µM) | 162
23 | CN(c1ncccc1CNc1nc(Nc2ccc3c(c2)CC(=O)N3)ncc1C(F)(F)F)S(C)(=O)=O + Cc1cc([N+](=O)[O-])ccc1NS(=O)(=O)c1cc(Cl)ccc1Cl [FH535] (first compound 0.08 µM, partner dose 1 µM) | 117
24 | CC(=O)O[C@@]12CO[C@@H]1C[C@H](O)[C@@]1(C)C(=O)[C@H](O)C3=C(C)[C@@H](OC(=O)[C@H](O)[C@@H](NC(=O)OC(C)(C)C)c4ccccc4)C[C@@](O)([C@@H](OC(=O)c4ccccc4)[C@H]21)C3(C)C [Docetaxel] + N#Cc1c(O)c2c(-c3ccc(-c4ccccc4O)cc3)csc2[nH]c1=O [A769662] (first compound 0.0001 µM, partner dose 2 µM) | 689
25 | CC(=O)O[C@@]12CO[C@@H]1C[C@H](O)[C@@]1(C)C(=O)[C@H](O)C3=C(C)[C@@H](OC(=O)[C@H](O)[C@@H](NC(=O)OC(C)(C)C)c4ccccc4)C[C@@](O)([C@@H](OC(=O)c4ccccc4)[C@H]21)C3(C)C [Docetaxel] + COc1ccc2c(c1)CCC1C2CCC2(C)C(NCCCCCCN3C(=O)C=CC3=O)CCC12 [U73122] (first compound 0.0001 µM, partner dose 0.4 µM) | 547
26 | CN(c1ncccc1CNc1nc(Nc2ccc3c(c2)CC(=O)N3)ncc1C(F)(F)F)S(C)(=O)=O + COc1cc(N2CCC(N3CCN(C)CC3)CC2)ccc1Nc1ncc(Cl)c(Nc2ccccc2S(=O)(=O)C(C)C)n1 [NVP-TAE684] (first compound 0.08 µM, partner dose 0.08 µM) | 105
27 | NC(=O)c1ccc(N(C(N)=O)c2c(F)cccc2F)nc1-c1ccc(F)cc1F + O=C(O)c1ccc(-c2c[nH]c3ncc(-c4ccccc4)cc23)cc1C1CCCC1 [GSK650394] (first compound 0.4 µM, partner dose 0.16 µM) | 120
28 | C[C@@H](N)c1ccc(C(=O)Nc2ccnc3[nH]ccc23)cc1 + Cc1cc(N2CCOCC2)cc2[nH]c(-c3c(NC[C@@H](O)c4cccc(Cl)c4)cc[nH]c3=O)nc12 [BMS536924] (first compound 0.4 µM, partner dose 0.2 µM) | 192
29 | CC(=O)O[C@@]12CO[C@@H]1C[C@H](O)[C@@]1(C)C(=O)[C@H](O)C3=C(C)[C@@H](OC(=O)[C@H](O)[C@@H](NC(=O)OC(C)(C)C)c4ccccc4)C[C@@](O)([C@@H](OC(=O)c4ccccc4)[C@H]21)C3(C)C [Docetaxel] + COc1ccc(-c2ccc3c(N4CCOCC4)nc(N4C[C@@H](C)O[C@@H](C)C4)nc3n2)cc1CO [KU0063794] (first compound 0.0001 µM, partner dose 0.02 µM) | 477

A different layout for part of the listing above:

| Row | SMILES | cleaved PARP positive nuclei fraction [%] |
| --- | --- | --- |
| 4 | C[C@@H](N)c1ccc(C(=O)Nc2ccnc3[nH]ccc23)cc1 + Cc1cc([N+](=O)[O-])ccc1NS(=O)(=O)c1cc(Cl)ccc1Cl [FH535] (first compound 0.4 µM, partner dose 1 µM) | 21.5 |
| 5 | CS(=O)(=O)c1ccc(C(=O)Nc2ccc(Cl)c(-c3ccccn3)c2)c(Cl)c1 [vismodegib] + O=S(=O)(c1ccccc1)N(CC(F)(F)F)c1ccc(C(O)(C(F)(F)F)C(F)(F)F)cc1 [T0901317] (first compound 1 µM, partner dose 1.4 µM) | 70.7 |
| 6 | CCN(CC)CCNC(=O)c1c(C)[nH]c(/C=C2\C(=O)Nc3ccc(F)cc32)c1C [sunitinib] + COc1cc(N2CCC(N3CCN(C)CC3)CC2)ccc1Nc1ncc(Cl)c(Nc2ccccc2S(=O)(=O)C(C)C)n1 [NVP-TAE684] (first compound 0.4 µM, partner dose 0.08 µM) | 61.8 |
| 7 | CC1(C)CCC(c2ccc(Cl)cc2)=C(CN2CCN(c3ccc(C(=O)NS(=O)(=O)c4ccc(N[C@H](CCN5CCOCC5)CSc5ccccc5)c(S(=O)(=O)C(F)(F)F)c4)cc3)CC2)C1 + CC(C)CCN1c2nc(Nc3cc(F)c(O)c(F)c3)ncc2N(C)C(=O)C1C [BID1870] (first compound 0.4 µM, partner dose 0.2 µM) | 114 |
| 8 | C[C@@H](N)c1ccc(C(=O)Nc2ccnc3[nH]ccc23)cc1 + CN(NC(=O)CC(=O)NN(C)C(=S)c1ccccc1)C(=S)c1ccccc1 [STA4783] (first compound 0.4 µM, partner dose 0.006 µM) | 71.2 |
| 9 | NC1(c2ccc(-c3nc4ccn5c(=O)[nH]nc5c4cc3-c3ccccc3)cc2)CCC1 + COc1cc(N2CCC(N3CCN(C)CC3)CC2)ccc1Nc1ncc(Cl)c(Nc2ccccc2S(=O)(=O)C(C)C)n1 [NVP-TAE684] (first compound 0.4 µM, partner dose 0.08 µM) | 64.8 |
| 10 | NC(=O)c1ccc(N(C(N)=O)c2c(F)cccc2F)nc1-c1ccc(F)cc1F + CCCCCCCCCCCC1=C(O)C(=O)C=C(O)C1=O [Embelin] (first compound 0.4 µM, partner dose 1.2 µM) | 83 |
| 11 | CS(=O)(=O)c1ccc(C(=O)Nc2ccc(Cl)c(-c3ccccn3)c2)c(Cl)c1 [vismodegib] + NCC(=O)Nc1ccc(-n2nc(C(F)(F)F)cc2-c2ccc3c(ccc4ccccc43)c2)cc1 [OSU03012] (first compound 1 µM, partner dose 1 µM) | 181 |
| 12 | NC1(c2ccc(-c3nc4ccn5c(=O)[nH]nc5c4cc3-c3ccccc3)cc2)CCC1 + O=S(=O)(c1ccccc1)N(CC(F)(F)F)c1ccc(C(O)(C(F)(F)F)C(F)(F)F)cc1 [T0901317] (first compound 0.4 µM, partner dose 1.4 µM) | 127 |
